# In PubChem BioAssay AID1671190 (National Center for Advancing Translational Sciences (NCATS), 2021):
# Sequences of proteins named here, by UniProt entry; tags and fusion partners are left off. A change or cut given only in a name is not applied to a line headed by its entry.
# UniProt P18054: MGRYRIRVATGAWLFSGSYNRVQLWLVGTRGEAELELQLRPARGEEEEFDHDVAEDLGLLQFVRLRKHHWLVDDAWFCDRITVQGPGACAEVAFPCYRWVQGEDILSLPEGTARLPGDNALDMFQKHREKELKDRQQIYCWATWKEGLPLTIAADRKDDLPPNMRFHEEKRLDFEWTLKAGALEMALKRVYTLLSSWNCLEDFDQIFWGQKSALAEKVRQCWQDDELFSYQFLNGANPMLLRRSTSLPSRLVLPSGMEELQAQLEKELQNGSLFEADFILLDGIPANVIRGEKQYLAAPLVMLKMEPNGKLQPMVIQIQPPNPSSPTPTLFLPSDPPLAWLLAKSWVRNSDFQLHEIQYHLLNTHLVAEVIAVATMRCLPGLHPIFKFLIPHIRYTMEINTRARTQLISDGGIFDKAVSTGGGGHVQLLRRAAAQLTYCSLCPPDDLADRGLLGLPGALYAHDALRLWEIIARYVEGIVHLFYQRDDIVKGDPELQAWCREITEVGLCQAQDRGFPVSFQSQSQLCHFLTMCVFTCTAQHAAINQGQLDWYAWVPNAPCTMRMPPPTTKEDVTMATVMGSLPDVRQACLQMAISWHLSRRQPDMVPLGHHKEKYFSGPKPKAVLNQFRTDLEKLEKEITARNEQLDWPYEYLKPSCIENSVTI
# The campaign covered roughly 580,000 compounds. About 6,100 (1.1%) were called active. Inconclusive means that the source gave no clear call. Such entries were picked first, then a sample of the others. Calls follow the shape of the dose curve; as a rule, active = well fitted inhibition curve with a large enough effect; inconclusive = small, poorly fitted or top-dose-only effect, or another doubt; inactive = no such curve, though single readings can be large or run the other way. Potencies of inconclusive entries are doubtful fits and often do not repeat.
# Target: Polyunsaturated fatty acid lipoxygenase ALOX12 (Homo sapiens) (UniProt P18054)
# Assay: Primary qHTS assay for inhibitors of human arachidonate 12S-lipoxygenase (ALOX12): Round 2
# Settings: purified 12hLO, xylenol orange hydroperoxide absorbance; series mostly up to 108 µM
# Procedure, shortened: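 Purified human 12hLO at 150 nM in 25 mM Hepes, 0.01% Triton X-100, pH 7.0, preincubated 15 min at room temperature with compound. Reaction started with 40 uM arachidonic acid, 30 min at room temperature. Hydroperoxide measured by Fe-xylenol orange, 573/405 nm absorbance ratio.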
# Potency is read from the fitted curve at half-maximal effect.
row,Compound,Potency
1,CC1(c2ccc3c(c2)OCO3)NC(=O)N(Cc2coc(-c3cccs3)n2)C1=O (stereo unspecified),"inconclusive: 56.2 µM [inhibitor, partial curve, poor fit]"
2,CCN(C(=O)COC(=O)c1ccccc1Oc1ccccc1)c1c(N)n(Cc2ccccc2)c(=O)[nH]c1=O,"inconclusive: 56.2 µM [inhibitor, partial curve, poor fit]"
3,COC(=O)Cc1c(C)c2ccc(O)cc2oc1=O,inactive
4,CN(Cc1cnccn1)C(=O)CC1C(=O)NCCN1Cc1ccc(F)cc1Cl (stereo unspecified),"inconclusive: 25.1 µM [inhibitor, partial curve, poor fit]"
5,Cc1ccc(NS(=O)(=O)c2csc(C(N)=O)c2)cc1C,inactive
6,CC(=O)Nc1ccc(Cl)c(NC(=O)c2nn(-c3ccccc3)c(=O)c3ccccc23)c1,inactive
7,CC1CCCc2sc(N)c(C#N)c21 (stereo unspecified),"inconclusive: 17.8 µM [inhibitor, partial curve, poor fit]"
8,Cc1ccc(S(=O)(=O)N2CCC3CC2c2cc(Cl)ccc23)cc1 (stereo unspecified),"inconclusive: 7.08 µM [inhibitor, full curve, poor fit]"
9,O=C(O)C(Cc1c[nH]c2ccccc12)NS(=O)(=O)c1ccc2ccccc2c1 (stereo unspecified),inactive
10,O=C(NCC(c1cccnc1)N1CCc2ccccc21)c1ccc(Cl)cc1 (stereo unspecified),inactive
11,Cc1ccc(-n2ncc(C(=O)NCCN3CCC(Cc4ccccc4)CC3)c2C2CCN(C(=O)OC(C)(C)C)CC2)cc1,"inconclusive: 31.6 µM [inhibitor, partial curve, poor fit]"
12,COc1cccc(C(=O)N2CCC(C(=O)c3ccc4c(c3)OCCO4)CC2)c1OC,inactive
13,O=C(c1ccc2ccccc2c1)N1CCN(Cc2ccccc2)CC1,"inconclusive: 112 µM [inhibitor, single point]"
14,O=C1N2CCCC2CN1C1CCN(Cc2cccc(F)c2)CC1 (stereo unspecified),"inconclusive: 126 µM [inhibitor, single point]"
15,CSc1nnc(-c2ccccc2N=Cc2c(C)[nH]n(-c3ccccc3)c2=O)c(=O)[nH]1,inactive
16,O=C1CSc2ccc(S(=O)(=O)Nc3ccccc3Cl)cc2N1,"inconclusive: 35.5 µM [inhibitor, partial curve, poor fit]"
17,COc1ccc(NC2=C(Cl)C(=O)N(CCc3ccccc3)C2=O)c(OC)c1,inactive
18,O=C(O)c1c2c(nc3ccccc13)/C(=C/c1c(F)cccc1F)CCC2,"inconclusive: 44.7 µM [inhibitor, partial curve, poor fit]"
19,N#CC1=C(SCC(=O)c2ccc(Br)cc2)NC(=O)C(C#N)C12CCCCC2 (stereo unspecified),"inconclusive: 28.2 µM [inhibitor, partial curve, poor fit]"
20,COc1ccc(/C=C2\SC(=Nc3ccccc3OC)NC2=O)cc1,inactive
21,CCOc1cccc(C2/C(=C(/O)c3ccc4c(c3)CC(C)O4)C(=O)C(=O)N2CCN2CCOCC2)c1 (stereo unspecified),inactive
22,Cc1cnc(C(=O)N2CCC(N3C(=O)C(OCC4CC4)C34CCOCC4)CC2)cn1 (stereo unspecified),"inconclusive: 5.62 µM [inhibitor, full curve]"

row,Compound,Potency
1,CCOC(=O)Cn1c(=O)c2c(nc3n2CCCCN3c2ccc(C)cc2)n(C)c1=O,"inconclusive: 4.47 µM [inhibitor, full curve, poor fit]"
2,Clc1nc2sccn2c1/C=N/n1cnc2ccccc21,inactive
3,O=C(c1ccco1)N1CCN(C(c2ccc(F)cc2)c2nnnn2CC2CCCO2)CC1 (stereo unspecified),"inconclusive: 44.7 µM [inhibitor, single point]"
4,COc1c(C2CC(=O)Nc3c2ncn3-c2cccc(C(F)(F)F)c2)cc2c(c1OC)OCO2 (stereo unspecified),"inconclusive: 17.8 µM [inhibitor, partial curve, poor fit]"
5,CCn1c(CNC(=O)c2cc(OC)c(OC)c(OC)c2)cc2ccccc21,inactive
6,O=C(Nc1c(Cl)c(C2CC2)nn1-c1ccccc1)C(Cl)(Cl)Cl,"inconclusive: 39.8 µM [inhibitor, partial curve, poor fit]"
7,CC(C)CC(=O)NC1CC(=O)N(c2ccc3c(c2)OCCO3)C1 (stereo unspecified),inactive
8,N#Cc1ccc(CN2C[C@@H](NC(=O)c3cccnc3)C[C@H]2CO)cc1,inactive
9,COc1cccc(C(=O)Nc2c(N3CCCC3)c3ccccc3oc2=O)c1,"inconclusive: 0.126 µM [inhibitor, full curve, poor fit]"
10,CN(Cc1ccccc1)c1nc2c(S(=O)(=O)c3cccc(Cl)c3)nnn2c2ccsc12,"inconclusive: 100 µM [inhibitor, partial curve, poor fit]"
11,CN1CCN(c2nc3cc(C(F)(F)F)ccc3n3cccc23)CC1,"inconclusive: 44.7 µM [inhibitor, partial curve, poor fit]"
12,C/C(=C\C(=O)N1CCc2ccccc21)C(=O)O,"inconclusive: 31.6 µM [inhibitor, single point]"
13,CCCNc1c(NS(=O)(=O)c2ccc(Cl)s2)c(=O)oc2ccccc12,"inconclusive: 4.47 µM [inhibitor, full curve, poor fit]"
14,CC1CCN(Cc2c(O)ccc3c(=O)c(-c4nc5ccccc5s4)c(N)oc23)CC1,inactive
15,COc1ccc(C(c2nnnn2CS(=O)(=O)c2ccc(C)cc2)N2CCN(c3ncccn3)CC2)cc1 (stereo unspecified),"inconclusive: 35.5 µM [inhibitor, partial curve, poor fit]"
16,O=S(=O)(NCCc1csc2nc(-c3ccc(Cl)cc3)nn12)c1cccs1,"inconclusive: 89.1 µM [inhibitor, partial curve, poor fit]"
17,Cc1ccc(Oc2ccc(Cl)cc2N)cc1,"inconclusive: 44.7 µM [inhibitor, partial curve, poor fit]"
18,CCOC(=O)CSc1ccc(S(=O)(=O)N2CCCCC2)cc1[N+](=O)[O-],inactive
19,CC1CN(CCOCCSc2ccccc2)CC(C)O1 (stereo unspecified),inactive
20,Cc1ccc(N2C(=O)N(Cc3ccccc3)c3ccccc3S2(=O)=O)c(C)c1,inactive
21,CCOc1ccc(NC(=O)Cn2c(-c3cccc(Cl)c3)nc(C)c(CCO)c2=O)cc1,"inconclusive: 25.1 µM [inhibitor, partial curve, poor fit]"
22,Cc1ccc(C2NC(=O)N(CC(=O)Nc3ccc(C(F)(F)F)cc3)C3=C2C(=O)OC3)cc1 (stereo unspecified),active: 10 µM

row,Compound,Potency
1,COc1ccccc1Nc1cc(C(=O)NCCCN(C)C2CCCCC2)c2ccccc2n1,"inconclusive: 50.1 µM [inhibitor, partial curve, poor fit]"
2,COCc1[nH]c(=S)[nH]c(=O)c1C,"inconclusive: 44.7 µM [inhibitor, partial curve, poor fit]"
3,O=C(Nc1ccc(Br)c(C(F)(F)F)c1)c1ccc(C(F)(F)F)cc1,"inconclusive: 100 µM [inhibitor, partial curve, poor fit]"
4,Cc1ccc(S(=O)(=O)c2cn(CC(=O)Nc3ccc(C)c(F)c3)c3nc(C)ccc3c2=O)c(C)c1,"inconclusive: 11.2 µM [inhibitor, full curve]"
5,CCOc1ccc(-c2nc(C#N)c(NCC(C)C)o2)cc1,"inconclusive: 35.5 µM [inhibitor, partial curve, poor fit]"
6,CC1(COc2ccccc2)COc2ccc(C(=O)NCc3cnccn3)cc2N1 (stereo unspecified),"inconclusive: 35.5 µM [inhibitor, single point]"
7,CN(CC(=O)Nc1ccccc1Cl)C(=O)c1cccc(S(=O)(=O)N2CCN(Cc3ccccc3)CC2)c1,inactive
8,COc1ccc(CN2C(=O)CCCc3ccccc32)cc1,"inconclusive: 0.282 µM [inhibitor, full curve, poor fit]"
9,CCC(C)NC(=O)C(=O)NCCc1c[nH]c2ccccc12 (stereo unspecified),"inconclusive: 44.7 µM [inhibitor, partial curve, poor fit]"
10,CCn1c(SCc2coc(-c3cccs3)n2)nnc1C1CC1,"inconclusive: 56.2 µM [inhibitor, partial curve, poor fit]"
11,CCOC(=O)c1ccc2c(c1)N(Cc1cc(C)ccc1C)C(=O)c1ccccc1S2(=O)=O,"inconclusive: 126 µM [inhibitor, partial curve, poor fit]"
12,COc1cccc(NC(=O)/C=C/c2ccc([N+](=O)[O-])cc2)c1,"inconclusive: 17.8 µM [inhibitor, full curve, poor fit]"
13,Cc1cc(C)nc(Nc2n[nH]c(-c3cccc4ccccc34)n2)n1,inactive
14,O=C(N/N=C(\c1ccccc1)C1CCCCC1)c1ccc(Cl)cc1,inactive
15,CCN(Cc1ccccc1)C(=O)CC1C(=O)NCCN1CCc1ccccc1 (stereo unspecified),inactive
16,CN(C)C(=O)c1ccc(S(=O)(=O)NCc2ccc(Cl)cc2)s1,inactive
17,O=C(Nc1ccc2oc(-c3ccccc3Cl)nc2c1)c1ncn[nH]1,"inconclusive: 56.2 µM [inhibitor, partial curve, poor fit]"
18,CN(C)CCCNc1oc(-c2ccccc2)nc1C#N,"inconclusive: 63.1 µM [inhibitor, partial curve, poor fit]"
19,CC(C)CCN1CN(S(=O)(=O)c2cccs2)c2nc3ccccc3nc21,"inconclusive: 14.1 µM [inhibitor, full curve, poor fit]"
20,CCOc1c(Br)cc(CNc2ccc(N3CCOCC3)cc2)cc1OC,"inconclusive: 126 µM [inhibitor, single point]"
21,CCCC1=C(C(=O)OCC)C(c2ccccc2C)C(C#N)=C(N)O1 (stereo unspecified),"inconclusive: 17.8 µM [inhibitor, partial curve, poor fit]"
22,CN(C)c1ccc(-c2ccccc2)nn1,"inconclusive: 56.2 µM [inhibitor, partial curve, poor fit]"

# 3 of the compounds above, with tabs.
row	Compound	Potency
17	Cc1ccc(Oc2ccc(Cl)cc2N)cc1	inconclusive: 44.7 µM [inhibitor, partial curve, poor fit]
18	CCOC(=O)CSc1ccc(S(=O)(=O)N2CCCCC2)cc1[N+](=O)[O-]	inactive
19	CC1CN(CCOCCSc2ccccc2)CC(C)O1 (stereo unspecified)	inactive
